Amino acid sequences for entries named in this document (tags omitted). A change or cut given only in a name is not applied to a line headed by its entry.
UniProt O94782: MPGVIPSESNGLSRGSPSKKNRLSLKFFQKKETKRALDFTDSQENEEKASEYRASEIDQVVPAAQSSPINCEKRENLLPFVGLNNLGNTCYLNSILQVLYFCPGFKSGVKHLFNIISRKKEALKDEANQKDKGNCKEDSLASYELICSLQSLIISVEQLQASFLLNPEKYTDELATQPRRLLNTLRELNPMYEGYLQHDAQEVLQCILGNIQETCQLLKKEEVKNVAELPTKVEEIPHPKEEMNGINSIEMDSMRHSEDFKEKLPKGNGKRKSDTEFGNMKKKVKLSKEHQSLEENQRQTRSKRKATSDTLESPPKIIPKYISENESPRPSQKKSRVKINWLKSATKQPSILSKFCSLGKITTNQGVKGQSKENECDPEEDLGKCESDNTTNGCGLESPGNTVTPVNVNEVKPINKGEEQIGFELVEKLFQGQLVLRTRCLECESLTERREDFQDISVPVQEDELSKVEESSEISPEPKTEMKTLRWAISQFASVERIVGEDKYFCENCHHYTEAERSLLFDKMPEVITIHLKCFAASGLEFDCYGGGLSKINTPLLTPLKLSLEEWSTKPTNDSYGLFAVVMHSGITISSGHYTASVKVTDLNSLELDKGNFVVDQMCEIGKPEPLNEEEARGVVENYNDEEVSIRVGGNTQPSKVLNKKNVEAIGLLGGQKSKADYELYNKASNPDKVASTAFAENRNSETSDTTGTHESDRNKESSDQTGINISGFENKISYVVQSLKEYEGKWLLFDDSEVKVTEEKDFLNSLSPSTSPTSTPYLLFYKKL

Screen size: about 390,000 compounds; about 910 (0.23%) were called active. The shares of active, inactive and inconclusive entries below differ from those in the screen. The call rests on the fitted dose curve; in most records, active means well fitted inhibition curve with a large enough effect; inconclusive means small, poorly fitted or top-dose-only effect; inactive means no such curve, though single readings can be large or run the other way. Potencies of inconclusive entries are doubtful fits and often do not repeat. Non-standard residues stand in square brackets, D forms with d. Residues, ends and D or L forms follow the SMILES beside them. *: point of attachment. Phe(4-Me) = Cc1ccc(C[CH](N)C(=O)O)cc1; Bz = O=C(c1ccccc1)*
What follows are compounds tested against Ubiquitin carboxyl-terminal hydrolase 1 (Homo sapiens) (UniProt O94782) (assay: Inhibitors of USP1/UAF1: Primary Screen). Conditions: recombinant USP1/UAF1, Ub-Rhodamine cleavage fluorescence; activity change, negative = inhibition: at 57.1 µM (top of the series).
Method in brief: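 1 nM enzyme complex + cpd, 15 min RT; start with Ub-Rho 150nM final; kinetic fluorescence ex 480/em 540, 6 reads q60 s. Buffer 50mM HEPES pH 7.8, 0.5mM EDTA, 0.1 mg/ml BSA, 1mM TCEP, 0.01% Tween-20.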
For COc1ccc(N2CCN(Cc3nnc(-c4cccc(Br)c4)o3)CC2)cc1, the Potency was inconclusive: 15.8 µM [inhibitor, partial curve]. In the case of CN(C)CCNc1oc(-c2ccc(COc3ccc(Cl)cc3)o2)nc1C#N, the Potency is reported as inconclusive: 6.31 µM [inhibitor, single point]. With COc1cccc(-c2sc3ccccc3c2-c2ccc(OCCN3CCCCC3)cc2)c1 the “activity change, negative = inhibition” value was inactive: -29.5%. COc1cc(NCCCCC(C)N)c2nccc(C)c2c1 (stereo not drawn) was tested, and the Potency was inconclusive: 1.12 µM [inhibitor, full curve]. O=C(COc1cc(Cl)c(Cl)cc1Cl)NCCc1ccccn1 was tested, and the Potency was inconclusive: 10 µM [inhibitor, single point]. For CCN1/C(=C2/SC(=S)N(NC(C)=O)C2=O)Sc2ccc(Cl)cc21, the Potency was inconclusive: 39.8 µM [inhibitor, partial curve]. CCOc1ccc(Nc2nc3c(S(=O)(=O)c4ccc(C(C)C)cc4)nnn3c3ccsc23)cc1 was tested, and the Potency was inconclusive: 15.8 µM [inhibitor, partial curve]. COc1ccc(C(=O)/C=C/c2ccc(OC)cc2OC)c(O)c1 was tested, and the “activity change, negative = inhibition” value was inactive: 10.7%. With COc1cccc(NC(=O)/C(C#N)=C/c2c(C)n(Cc3ccc(Cl)cc3)c3ccccc23)c1 the “activity change, negative = inhibition” value was inactive: -17.9%. In the case of Cc1ccc(-c2ccc(CN3C(CC(C)C)C(=O)N(Cc4cn(Cc5ccco5)nn4)CCS3(=O)=O)cc2)cc1 (stereo not drawn), the Potency is reported as inconclusive: 0.316 µM [inhibitor, full curve, poor fit]. With Cn1c(-c2ccccc2)cnc1SCC(=O)NCc1ccco1 the Potency was inconclusive: 35.5 µM [inhibitor, partial curve]. With O=C(C1CCN(S(=O)(=O)Cc2ccccc2)CC1)N1CCN(c2cccc(C(F)(F)F)c2)CC1 the “activity change, negative = inhibition” value was inactive: -11.1%. In the case of O=S(=O)([N-]c1nc2ccccc2nc1-[n+]1ccc(-c2ccncc2)cc1)c1ccccc1, the Potency is reported as inconclusive: 2.82 µM [inhibitor, full curve]. For COc1ccc(NC(=O)C2=C(C)Nc3ncnn3C2c2cccn2C)cc1 (stereo not drawn), the Potency was inconclusive: 0.316 µM [inhibitor, full curve]. Fc1cccc(-c2nnn3c2nc(NC2CCCCC2)c2ccccc23)c1 was tested, and the Potency was inconclusive: 6.31 µM [inhibitor, partial curve]. For COc1ccc2nc(N(Cc3cccnc3)C(=O)Cc3ccccc3)sc2c1, the Potency was inconclusive: 31.6 µM [inhibitor, single point]. CC(=O)N1CCc2cc(S(=O)(=O)C(C)CC(=O)Nc3ccc(Br)c(C)c3)ccc21 (stereo not drawn) was tested, and the Potency was inconclusive: 8.91 µM [inhibitor, partial curve]. In the case of CN(C)S(=O)(=O)c1ccc(C(=O)NCCSc2c(-c3ccccc3)[nH]c3ccccc23)cc1, the “activity change, negative = inhibition” value is reported as inactive: -20.9%. With O=C(NCCO)c1cc2cc(Cl)cc(Cl)c2oc1=O the “activity change, negative = inhibition” value was inactive: -16%. In the case of C/C(=N\NC(=S)Nc1ccccc1)C1Cc2ccccc2C(=O)O1 (stereo not drawn), the Potency is reported as inconclusive: 0.631 µM [inhibitor, full curve, poor fit]. For Cc1ccc(CC(NC(=O)c2ccccc2)C(=O)NC(CC(C)C)C(=O)O)cc1 (stereo not drawn) (Bz-[Phe(4-Me)]-Leu-OH; configuration not given here), the Potency was inconclusive: 35.5 µM [inhibitor, partial curve, poor fit]. In the case of COc1ccc(/C=C/C(=O)Nc2nc(-c3cccs3)ns2)cc1, the “activity change, negative = inhibition” value is reported as inactive: -4.98%. In the case of c1ccc(-n2c(SCC3CCCCO3)nnc2-c2cccs2)cc1 (stereo not drawn), the Potency is reported as inconclusive: 0.631 µM [inhibitor, full curve, poor fit]. With CN(C)Cc1c(O)ccc2c(=O)c(-c3ccc(Cl)cc3)coc12 the Potency was inconclusive: 28.2 µM [inhibitor, partial curve]. With CCN(CC)C(=O)C(=O)Nc1ccc(Oc2ccccc2)cc1 the Potency was inconclusive: 8.91 µM [inhibitor, partial curve, poor fit]. For CCN(C(=O)COC(=O)c1ccc(C=O)cc1)c1c(N)n(Cc2ccccc2)c(=O)[nH]c1=O, the “activity change, negative = inhibition” value was inactive: -9.95%. With Cc1cccc(NS(=O)(=O)c2ccc(C)c(C(=O)NCC(c3ccco3)N3CCCCC3)c2)c1 (stereo not drawn) the Potency was inconclusive: 7.08 µM [inhibitor, partial curve]. In the case of CCOC(=O)Nc1cc(OC)cc2ccc(C)nc12, the Potency is reported as inconclusive: 100 µM [inhibitor, partial curve, poor fit]. In the case of COc1ccccc1CNC(=O)c1cn(C)c2ccc(S(=O)(=O)N(C)C3CCCCC3)cc2c1=O, the Potency is reported as inconclusive: 44.7 µM [inhibitor, partial curve, poor fit]. With CCOc1ccc(NC(=O)c2c(NC(=O)Cc3ccccc3)sc3c2CCCCC3)cc1 the Potency was inconclusive: 0.631 µM [inhibitor, full curve]. With Cc1cc(C)cc(NC(=O)Cn2cc(C(=O)C3CCCCC3)c3ccccc32)c1 the Potency was inconclusive: 6.31 µM [inhibitor, single point]. For Cc1ccc2nc(COc3ccccc3NC(=O)c3ccc(F)cc3)cc(=O)n2c1, the Potency was inconclusive: 3160 µM [inhibitor, partial curve, poor fit]. For COc1ccc(OCC(O)Cn2c(NCCO)nc3c2c(=O)n(C)c(=O)n3C)cc1 (stereo not drawn), the Potency was inconclusive: 8.91 µM [inhibitor, partial curve, poor fit]. C#CCOCCOCCOCCNc1nc(N2CCN(C(=O)CCCCCCCCCCNC(=O)[C@@H](CCC(=O)O)n3cc(CCCCCN)nn3)CC2)nc(N2CCN(C(=O)CCCCCCCCCCNC(=O)[C@H](CCCCN)n3cc(C[C@@H](C)CC)nn3)CC2)n1 was tested, and the Potency was inconclusive: 50.1 µM [inhibitor, partial curve, poor fit]. C#CCOCCOCCOCCNc1nc(N2CCN(C(=O)CCCCCCCCCCNC(=O)[C@@H](CCSC)n3cc(CCO)nn3)CC2)nc(N2CCN(C(=O)CCCCCCCCCCNC(=O)[C@H](CO)n3cc(CCCCCN)nn3)CC2)n1 was tested, and the Potency was inconclusive: 20 µM [inhibitor, partial curve]. With O=C(Nc1ccc2c(c1)CCCN2C(=O)c1cccs1)c1c(F)cccc1Cl the “activity change, negative = inhibition” value was inactive: -18.9%. For CC1=C(C(=O)N2CCN(c3cccc(Cl)c3)CC2)C2(CCCCC2)OC1=O, the “activity change, negative = inhibition” value was inactive: -12.4%. In the case of CN1CCc2c(sc3c2C(=O)NC(c2ccc(C(C)(C)C)cc2)N3)C1 (stereo not drawn), the Potency is reported as inconclusive: 63.1 µM [inhibitor, partial curve, poor fit]. For Cc1ccc(NC(=O)CC2S/C(=N/N=C3\CCCc4ccccc43)NC2=O)cc1 (stereo not drawn), the Potency was inconclusive: 12.6 µM [inhibitor, partial curve, poor fit]. For COc1ccc(CCNc2ncnc3c2cnn3-c2cc(Cl)ccc2C)cc1, the Potency was inconclusive: 7.94 µM [inhibitor, partial curve]. For CC(C)(C)C1CCc2oc3ccc(NS(=O)(=O)c4ccc(C(=O)O)cc4)cc3c2C1 (stereo not drawn), the Potency was inconclusive: 31.6 µM [inhibitor, partial curve]. With Cc1c(C(=O)Nc2cccc(C(F)(F)F)c2)oc2ccc3c(c12)C(=O)CC(C)(C)O3 the “activity change, negative = inhibition” value was inactive: -37%. CCc1nn2c(=O)cc(COC(=O)COc3ccc(OC)cc3)nc2s1 was tested, and the Potency was inconclusive: 70.8 µM [inhibitor, partial curve, poor fit]. CCCCn1nc(C(=O)N(CC(C)C)c2c(N)n(CCCC)c(=O)[nH]c2=O)c2ccccc2c1=O was tested, and the Potency was inconclusive: 0.282 µM [inhibitor, full curve]. CCc1ccc(S(=O)(=O)Nc2cc3c(C(=O)OCc4ccccc4)c(C)oc3c3ccccc23)cc1 was tested, and the Potency was inconclusive: 8.91 µM [inhibitor, full curve, poor fit]. O=C(CNC(=O)c1cccs1)NCC(=O)OCc1ccccc1Cl was tested, and the Potency was inconclusive: 0.355 µM [inhibitor, full curve, poor fit]. With O=C(N[C@@H](Cc1ccccc1)C(=O)OCc1ccccc1)c1nc[nH]c1C(=O)N1CCc2ccccc2C1 the Potency was inconclusive: 39.8 µM [inhibitor, partial curve, poor fit]. With O=C1CCCN1CCCNS(=O)(=O)c1ccc(Br)cc1 the Potency was inconclusive: 50.1 µM [inhibitor, partial curve, poor fit]. With Cc1cc(C)c(NC(=O)c2sc3nc(C)cc(C)c3c2NC(=O)c2ccccc2)c(C)c1 the Potency was inconclusive: 2.82 µM [inhibitor, full curve]. With COC(=O)c1cc([N+](=O)[O-])c(C)c(C)n1 the Potency was inconclusive: 5.01 µM [inhibitor, partial curve]. For O=C(NC1CCCCC1)c1cc(S(=O)(=O)N2CCCC2)ccc1Cl, the Potency was inconclusive: 56.2 µM [inhibitor, single point]. CC(=O)c1sc2nc(-c3cccs3)ccc2c1N was tested, and the Potency was inconclusive: 35.5 µM [inhibitor, partial curve]. With COc1cc(CCC(=O)NCc2ccc3c(c2)CCN3C(=O)c2ccccc2)cc(OC)c1OC the Potency was inconclusive: 31.6 µM [inhibitor, partial curve, poor fit]. In the case of CCCOc1ccc(-c2nnn(CC(=O)c3c[nH]c4ccccc34)n2)cc1, the Potency is reported as inconclusive: 0.708 µM [inhibitor, full curve, poor fit]. CC(=O)c1ccc(N2CCN(C(=O)C3CCCN(S(=O)(=O)c4ccc(Br)s4)C3)CC2)cc1 (stereo not drawn) was tested, and the Potency was inconclusive: 0.794 µM [inhibitor, full curve, poor fit]. With O=C(Nc1nc2c(s1)CCCC2)C1COc2ccccc2O1 (stereo not drawn) the Potency was inconclusive: 1.58 µM [inhibitor, full curve, poor fit]. With CC(C)c1ccc(S(=O)(=O)c2ccc(NN)cc2)cc1 the Potency was inconclusive: 44.7 µM [inhibitor, partial curve]. For CCN(C(=O)Cn1nnc2sc3c(c2c1=O)CCC(C(C)(C)C)C3)c1cccc(C)c1 (stereo not drawn), the “activity change, negative = inhibition” value was inactive: -9.6%.

— PubChem BioAssay AID743255 (National Center for Advancing Translational Sciences (NCATS), 2014)
Further: nearly all actives have a fitted effect of over 60% in size.
On the % scale 0 is the no-effect control and ±100 the full control effect; potency means the concentration at half of the fitted maximal effect.
